According to publication PMC7862700:
The other results are listed elsewhere or left out. Construct or isoform of the protein are uncertain.

biological target: T1, ETS1 (UniProt P14921); assay: DAPPL (digital affinity profiling via proximity ligation, sequencing); settings: 10 mM Tris-HCl pH 7.5, 50 mM NaCl, 1 mM DTT, 4% glycerol, room temperature, 30 min; GST-TFs on glutathione beads, 16-mer random dsDNA library, 0.1% …; high values mean tight binding; double strand, one strand shown; scale: fold enrichment (6-mer frequency, TF over GST control)
T1 sequence: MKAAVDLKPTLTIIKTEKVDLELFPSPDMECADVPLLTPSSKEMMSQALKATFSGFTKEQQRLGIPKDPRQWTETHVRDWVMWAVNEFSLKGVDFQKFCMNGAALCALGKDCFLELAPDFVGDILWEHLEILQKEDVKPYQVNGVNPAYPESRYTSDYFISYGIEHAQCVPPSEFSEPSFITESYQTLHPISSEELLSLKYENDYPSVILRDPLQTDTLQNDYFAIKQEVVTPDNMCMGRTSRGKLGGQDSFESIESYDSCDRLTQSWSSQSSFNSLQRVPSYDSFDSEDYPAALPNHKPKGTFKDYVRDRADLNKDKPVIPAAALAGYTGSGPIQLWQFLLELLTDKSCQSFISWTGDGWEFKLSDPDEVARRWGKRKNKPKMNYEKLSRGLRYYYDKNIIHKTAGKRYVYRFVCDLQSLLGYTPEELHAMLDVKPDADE

Sequence	binding signal
TCTAAC	1.21
CTCAAG	1.21
ACTTGT	1.34
CCGTAT	1.2
ATAAAA	1.15
AGCACA	1.08
TCCCAT	1.37
GATAGC	1.07
CTCCCA	1.35
GCGACC	1.14
TTCGAT	1.28
CTCATA	1.34
AAGGGC	1.09
TTCCGC	3.09
ATCTTG	1.32
CATTCT	1.35
GTCTCG	1.49
TTGGCA	1.22
ATGAAC	1.24
CGTATA	1.18

Sequence	binding signal
AAATCT	1.34
TATTGC	1.37
CCACGT	1.05
CAACTA	1.27
GGATGT	1.52
AAGTTC	1.47
ATAGCC	0.979
AAATGC	1.28
GGTTAT	1.05
CTCTTA	1.43
CCGCTC	1.47
GGTGTT	0.947
GCTCTT	1.42
GTCGAC	1.06
CACCGA	1.04
TTACAG	1.21
CACGCG	1.27
TGATGC	1.63
GACTAC	1.07
CGTTCC	1.54

Quoted at random: three entries already listed
Sequence	binding signal
TGATGC	1.63
TTCCGC	3.09
AAGGGC	1.09
